Measured values from PubChem BioAssay AID250 (DTP/NCI, 2004).
The list is a part of this screen's results and no random one: it is rich in T/C values a quarter to a half above the control, in often repeated tests (any T/C) and in doses without a T/C. Further doses and runs are listed elsewhere. T/C is the treated group as % of the vehicle group. Where survival is the endpoint, the PubChem record calls one and a half times the control and up active, and a quarter to a half above the control has no call in these data; cut-offs in other NCI protocols can differ. Schedule codes are those of the source, read here as Q, the interval in days (D) or hours (H), X, the number of doses. Counts like (3×) give the number of equal values in this list. Some doses were run more than once; the results are listed from low to high. Some schedule codes hold Z or #, which are not explained here. Some T/C values are followed by the survivors on the day toxicity was checked, most often the fifth; where none is given, no animal had died by that day.

Legend:
[1] = system: BDF1 mice, L1210 leukemia sc; assay: NCI In Vivo Anticancer Drug Screen. Data for tumor model L1210 Leukemia (subcutaneous) in B6D2F1 (BDF1) mice; conditions: higher T/C = longer survival
How it was run: (§1)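 Expressed as T/C: measurement in compound-treated, tumor-bearing mice relative to vehicle-treated control mice, based on survival or tumor size.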

[2] = system: BDF1 mice, L1210 leukemia sc, survival T/C; assay: as above; conditions: T/C endpoint: median survival time, higher T/C = longer survival
How it was run: as §1

`CN(C)/N=N/c1nc[nH]c1C(N)=O` was tested, and the T/C ([1]; T/C endpoint: mean survival time, dose: 108.0 mg/kg/injection, schedule: Q01DX009 (sc), vehicle: steroid suspending solution) was 125 % of control, the T/C ([1]; T/C endpoint: mean survival time, dose: 180.0 mg/kg/injection, schedule: Q01DX009 (sc), vehicle: steroid suspending solution) was 142 % of control and the T/C ([1]; T/C endpoint: median survival time, dose: 65.0 mg/kg/injection, schedule: Q01DX017 (oral), vehicle: steroid suspending solution) was 127 % of control. The T/C ([1]; T/C endpoint: median survival time, dose: 108.0 mg/kg/injection, schedule: Q01DX009 (sc), vehicle: steroid suspending solution, evaluated on day 6) was 126 % of control, the T/C ([1]; T/C endpoint: median survival time, dose: 108.0 mg/kg/injection, schedule: Q01DX013 (sc), vehicle: other) was 127 % of control and the T/C ([1]; T/C endpoint: median survival time, dose: 108.0 mg/kg/injection, schedule: Q01DX017 (oral), vehicle: steroid suspending solution, evaluated on day 6) was 135 % of control. For the same molecule, the T/C ([1]; T/C endpoint: median survival time, dose: 108.0 mg/kg/injection, schedule: Q01DX017 (oral), vehicle: steroid suspending solution, evaluated on day 47) was 138 % of control, the T/C ([1]; T/C endpoint: median survival time, dose: 108.0 mg/kg/injection, schedule: Q01DX Z (sc), vehicle: steroid suspending solution) was 127 % of control and the T/C ([1]; T/C endpoint: median survival time, dose: 180.0 mg/kg/injection, schedule: Q01DX009 (sc), vehicle: steroid suspending solution, evaluated on day 6) was 128, 130, 143 % of control. For the same molecule, the T/C ([1]; T/C endpoint: median survival time, dose: 180.0 mg/kg/injection, schedule: Q01DX009 (sc), vehicle: steroid suspending solution, evaluated on day 37) was 133 % of control, the T/C ([1]; T/C endpoint: median survival time, dose: 180.0 mg/kg/injection, schedule: Q01DX013 (sc), vehicle: other) was 127 % of control and the T/C ([1]; T/C endpoint: median survival time, dose: 180.0 mg/kg/injection, schedule: Q01DX013 (sc), vehicle: steroid suspending solution, evaluated on day 6) was 133 % of control. For the same molecule, the T/C ([1]; T/C endpoint: median survival time, dose: 180.0 mg/kg/injection, schedule: Q01DX013 (sc), vehicle: steroid suspending solution, evaluated on day 36) was 127 % of control, the T/C ([1]; T/C endpoint: median survival time, dose: 180.0 mg/kg/injection, schedule: Q01DX013 (sc), vehicle: steroid suspending solution, evaluated on day 40) was 131 % of control [7 of 8 alive] and the T/C ([1]; T/C endpoint: median survival time, dose: 180.0 mg/kg/injection, schedule: Q01DX017 (oral), vehicle: steroid suspending solution, evaluated on day 6) was 129 % of control. For the same molecule, the T/C ([1]; T/C endpoint: median survival time, dose: 180.0 mg/kg/injection, schedule: Q01DX017 (oral), vehicle: steroid suspending solution, evaluated on day 47) was 133 % of control, the T/C ([1]; T/C endpoint: median survival time, dose: 180.0 mg/kg/injection, schedule: Q01DX Z (sc), vehicle: steroid suspending solution, evaluated on day 36) was 144 % of control and the T/C ([1]; T/C endpoint: median survival time, dose: 180.0 mg/kg/injection, schedule: Q01DX Z (sc), vehicle: steroid suspending solution, evaluated on day 40) was 126 % of control. The T/C ([1]; T/C endpoint: median survival time, dose: 180.0 mg/kg/injection, schedule: Q ##X015 (oral), vehicle: steroid suspending solution) was 125 % of control, the T/C ([1]; T/C endpoint: median survival time, dose: 180.0 mg/kg/injection, schedule: Q## X015 (oral), vehicle: steroid suspending solution) was 127 % of control and the T/C ([1]; T/C endpoint: median survival time, dose: 300.0 mg/kg/injection, schedule: Q01DX009 (sc), vehicle: other) was 125 % of control. The T/C ([1]; T/C endpoint: median survival time, dose: 300.0 mg/kg/injection, schedule: Q01DX009 (sc), vehicle: steroid suspending solution, evaluated on day 6) was 138 and 146 % of control, the T/C ([1]; T/C endpoint: median survival time, dose: 300.0 mg/kg/injection, schedule: Q01DX013 (sc), vehicle: other) was 130 % of control and the T/C ([1]; T/C endpoint: median survival time, dose: 300.0 mg/kg/injection, schedule: Q01DX013 (sc), vehicle: steroid suspending solution, evaluated on day 6) was 145 % of control. For the same molecule, the T/C ([1]; T/C endpoint: median survival time, dose: 300.0 mg/kg/injection, schedule: Q01DX013 (sc), vehicle: steroid suspending solution, evaluated on day 36) was 127 % of control, the T/C ([1]; T/C endpoint: median survival time, dose: 300.0 mg/kg/injection, schedule: Q01DX013 (sc), vehicle: steroid suspending solution, evaluated on day 40) was 136 % of control and the T/C ([1]; T/C endpoint: median survival time, dose: 300.0 mg/kg/injection, schedule: Q01DX017 (oral), vehicle: steroid suspending solution, evaluated on day 6) was 141 % of control. The T/C ([1]; T/C endpoint: median survival time, dose: 300.0 mg/kg/injection, schedule: Q01DX017 (oral), vehicle: steroid suspending solution, evaluated on day 47) was 144 % of control, the T/C ([1]; T/C endpoint: median survival time, dose: 300.0 mg/kg/injection, schedule: Q01DX Z (sc), vehicle: steroid suspending solution) was 136 % of control and the T/C ([1]; T/C endpoint: median survival time, dose: 300.0 mg/kg/injection, schedule: Q ##X015 (oral), vehicle: steroid suspending solution) was 138 % of control. For the same molecule, the T/C ([1]; T/C endpoint: median survival time, dose: 300.0 mg/kg/injection, schedule: Q## X015 (oral), vehicle: steroid suspending solution) was 138 % of control, the T/C ([1]; T/C endpoint: median survival time, dose: 500.0 mg/kg/injection, schedule: Q01DX009 (sc), vehicle: other) was 140 % of control and the T/C ([1]; T/C endpoint: median survival time, dose: 500.0 mg/kg/injection, schedule: Q01DX009 (sc), vehicle: steroid suspending solution, evaluated on day 6) was 141 % of control. For the same molecule, the T/C ([1]; T/C endpoint: median survival time, dose: 500.0 mg/kg/injection, schedule: Q01DX009 (sc), vehicle: steroid suspending solution, evaluated on day 37) was 144 % of control, the T/C ([1]; T/C endpoint: median survival time, dose: 500.0 mg/kg/injection, schedule: Q01DX009 (sc), vehicle: steroid suspending solution, evaluated on day 38) was 135 % of control and the T/C ([1]; T/C endpoint: median survival time, dose: 500.0 mg/kg/injection, schedule: Q01DX015 (sc), vehicle: Klucel (hydroxypropylcellulose) (HPC), evaluated on day 7) was 141 % of control. For the same molecule, the T/C ([1]; T/C endpoint: median survival time, dose: 500.0 mg/kg/injection, schedule: Q01DX015 (sc), vehicle: Klucel (hydroxypropylcellulose) (HPC), evaluated on day 64) was 138 % of control, the T/C ([1]; T/C endpoint: median survival time, dose: 500.0 mg/kg/injection, schedule: Q01DX017 (oral), vehicle: steroid suspending solution) was 148 % of control and the T/C ([1]; T/C endpoint: median survival time, dose: 500.0 mg/kg/injection, schedule: Q ##X015 (oral), vehicle: steroid suspending solution) was 148 % of control. The T/C ([2]; dose: 108.0 mg/kg/injection, schedule: Q01DX009 (sc), vehicle: steroid suspending solution, evaluated on day 6) was 114 and 117 % of control, the T/C ([2]; dose: 108.0 mg/kg/injection, schedule: Q01DX009 (sc), vehicle: steroid suspending solution, evaluated on day 37) was 116 % of control and the T/C ([2]; dose: 108.0 mg/kg/injection, schedule: Q01DX009 (sc), vehicle: steroid suspending solution, evaluated on day 38) was 105 % of control. The T/C ([2]; dose: 108.0 mg/kg/injection, schedule: Q01DX015 (sc), vehicle: Klucel (hydroxypropylcellulose) (HPC), evaluated on day 7) was 104 and 110 % of control, the T/C ([2]; dose: 108.0 mg/kg/injection, schedule: Q01DX015 (sc), vehicle: Klucel (hydroxypropylcellulose) (HPC), evaluated on day 30) was 110 % of control and the T/C ([2]; dose: 108.0 mg/kg/injection, schedule: Q01DX015 (sc), vehicle: Klucel (hydroxypropylcellulose) (HPC), evaluated on day 64) was 100 % of control. The T/C ([2]; dose: 180.0 mg/kg/injection, schedule: Q01DX009 (sc), vehicle: steroid suspending solution, evaluated on day 38) was 110 % of control, the T/C ([2]; dose: 180.0 mg/kg/injection, schedule: Q01DX015 (sc), vehicle: Klucel (hydroxypropylcellulose) (HPC), evaluated on day 7) was 114 and 116 % of control and the T/C ([2]; dose: 180.0 mg/kg/injection, schedule: Q01DX015 (sc), vehicle: Klucel (hydroxypropylcellulose) (HPC), evaluated on day 30) was 116 % of control [7 of 8 alive]. The T/C ([2]; dose: 180.0 mg/kg/injection, schedule: Q01DX015 (sc), vehicle: Klucel (hydroxypropylcellulose) (HPC), evaluated on day 64) was 111 % of control, the T/C ([2]; dose: 300.0 mg/kg/injection, schedule: Q01DX009 (sc), vehicle: steroid suspending solution, evaluated on day 6) was 169 % of control and the T/C ([2]; dose: 300.0 mg/kg/injection, schedule: Q01DX009 (sc), vehicle: steroid suspending solution, evaluated on day 37) was 150 % of control. The T/C ([2]; dose: 300.0 mg/kg/injection, schedule: Q01DX009 (sc), vehicle: steroid suspending solution, evaluated on day 38) was 120 % of control, the T/C ([2]; dose: 300.0 mg/kg/injection, schedule: Q01DX015 (sc), vehicle: Klucel (hydroxypropylcellulose) (HPC), evaluated on day 7) was 122 and 123 % of control and the T/C ([2]; dose: 300.0 mg/kg/injection, schedule: Q01DX015 (sc), vehicle: Klucel (hydroxypropylcellulose) (HPC), evaluated on day 30) was 122 % of control. For the same molecule, the T/C ([2]; dose: 300.0 mg/kg/injection, schedule: Q01DX015 (sc), vehicle: Klucel (hydroxypropylcellulose) (HPC), evaluated on day 64) was 122 % of control, the T/C ([2]; dose: 500.0 mg/kg/injection, schedule: Q01DX015 (sc), vehicle: Klucel (hydroxypropylcellulose) (HPC), evaluated on day 7) was 117 % of control and the T/C ([2]; dose: 500.0 mg/kg/injection, schedule: Q01DX015 (sc), vehicle: Klucel (hydroxypropylcellulose) (HPC), evaluated on day 30) was 117 % of control. For the same molecule, the T/C ([2]; dose: 833.0 mg/kg/injection, schedule: Q01DX015 (sc), vehicle: Klucel (hydroxypropylcellulose) (HPC), evaluated on day 7) was 121 % of control (2×), the T/C ([2]; dose: 833.0 mg/kg/injection, schedule: Q01DX015 (sc), vehicle: Klucel (hydroxypropylcellulose) (HPC), evaluated on day 30) was 121 % of control and the T/C ([2]; dose: 833.0 mg/kg/injection, schedule: Q01DX015 (sc), vehicle: Klucel (hydroxypropylcellulose) (HPC), evaluated on day 64) was 122 % of control.
